Data as given in PubChem BioAssay AID1259254 (NCATS, 2017).
Purpose: 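Genome-wide screen for genes that prevent DNA re-replication in cancer cells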 (primary screen). Cell system: human HCT116 colorectal cancer cells. Knock-down reagent: single siRNA against human genes. Timing: 3 days. Read-out: 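Imaged Hoechst DNA stain sorts each cell into a cycle phase by DNA amount; per plate, G2 fraction set to 0% for non-targeting and 100% for GMNN siRNA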. Reading the numbers: G2 robust z-score and G2 cells, % of GMNN control: higher = more G2 cells, more excess DNA replication. Rule for the call: 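An siRNA counts as active if its G2 robust z-score lies at least 5 MADs above the screen median; here such calls match roughly 38% of GMNN control or more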.
The whole screen tested about 59,000 reagents; below is an unselected part. About 1,550 of them (2.6%) were called active. 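G2 share is only a proxy for re-replication; each gene was hit by three separate siRNAs, and active genes were retested.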 Not all columns of the deposit are shown. No sequences are given here. Not given: the amount of reagent.

SDHAF1 [SID160733858] showed G2 robust z-score -0.074; G2 cells, % of GMNN control 2.45; inactive. SDHAF1 [SID160769101] scored G2 robust z-score -0.139; G2 cells, % of GMNN control 1.99; inactive. Knock-down of SDHAF1 [SID160769102] resulted in: G2 robust z-score 0.655; G2 cells, % of GMNN control 7.57; inactive. For SLURP1 [SID160714724] the deposit lists G2 robust z-score -0.388; G2 cells, % of GMNN control 0.237; inactive. For SLURP1 [SID160714830] the deposit lists G2 robust z-score -0.551; G2 cells, % of GMNN control -0.908; inactive. For SLURP1 [SID160724486] the deposit lists G2 robust z-score -0.428; G2 cells, % of GMNN control -0.0419; inactive.

TMEM161A [SID160742517] showed G2 robust z-score -1.37; G2 cells, % of GMNN control -6.65; inactive. Depletion of TMEM161A [SID160742518] resulted in: G2 robust z-score 0.125; G2 cells, % of GMNN control 3.85; inactive. For TMEM161A [SID160742519] the deposit lists G2 robust z-score 0.0168; G2 cells, % of GMNN control 3.09; inactive. With knock-down of BPIFB6 [SID160756807], the record shows G2 robust z-score -0.15; G2 cells, % of GMNN control 1.91; inactive. After knock-down of BPIFB6 [SID160756808], the record shows G2 robust z-score 1.1; G2 cells, % of GMNN control 10.7; inactive. Depletion of BPIFB6 [SID160756809] gave: G2 robust z-score -0.416; G2 cells, % of GMNN control 0.038; inactive.

2 entries from above, showing only “G2 cells, % of GMNN control”:
TMEM161A [SID160742517]	-6.65
TMEM161A [SID160742518]	3.85

Next results follow.
LOC441722 [SID160725444] scored G2 robust z-score 0.939; G2 cells, % of GMNN control 9.57; inactive. With knock-down of LOC441722 [SID160768071], the screen gave G2 robust z-score 0.877; G2 cells, % of GMNN control 9.14; inactive. LOC441722 [SID160768072] gave G2 robust z-score -1.04; G2 cells, % of GMNN control -4.32; inactive. With knock-down of RAB30 [SID160738705], the record shows G2 robust z-score 3.13; G2 cells, % of GMNN control 25; inactive. RAB30 [SID160738706] scored G2 robust z-score -0.044; G2 cells, % of GMNN control 2.66; inactive. RAB30 [SID160738707] gave G2 robust z-score -0.0129; G2 cells, % of GMNN control 2.88; inactive.

With knock-down of SPATA31J1 [SID160733006] the results were G2 robust z-score -0.181; G2 cells, % of GMNN control 1.69; inactive. For SPATA31J1 [SID160763697], the values are G2 robust z-score -0.112; G2 cells, % of GMNN control 2.18; inactive. SPATA31J1 [SID160763698] showed G2 robust z-score -0.666; G2 cells, % of GMNN control -1.72; inactive. For SPATA31J1 [SID160767939], the values are G2 robust z-score 2.7; G2 cells, % of GMNN control 22; inactive. SPATA31J1 [SID160767940] gave G2 robust z-score 4.76; G2 cells, % of GMNN control 36.5; inactive. With knock-down of SPATA31J1 [SID160767941], the record shows G2 robust z-score 5.81; G2 cells, % of GMNN control 43.9; active.
